This passage reports binding results from publication PMC10925683.

Sequences of proteins named here, by UniProt entry; tags and fusion partners are left off.
UniProt Q96P20: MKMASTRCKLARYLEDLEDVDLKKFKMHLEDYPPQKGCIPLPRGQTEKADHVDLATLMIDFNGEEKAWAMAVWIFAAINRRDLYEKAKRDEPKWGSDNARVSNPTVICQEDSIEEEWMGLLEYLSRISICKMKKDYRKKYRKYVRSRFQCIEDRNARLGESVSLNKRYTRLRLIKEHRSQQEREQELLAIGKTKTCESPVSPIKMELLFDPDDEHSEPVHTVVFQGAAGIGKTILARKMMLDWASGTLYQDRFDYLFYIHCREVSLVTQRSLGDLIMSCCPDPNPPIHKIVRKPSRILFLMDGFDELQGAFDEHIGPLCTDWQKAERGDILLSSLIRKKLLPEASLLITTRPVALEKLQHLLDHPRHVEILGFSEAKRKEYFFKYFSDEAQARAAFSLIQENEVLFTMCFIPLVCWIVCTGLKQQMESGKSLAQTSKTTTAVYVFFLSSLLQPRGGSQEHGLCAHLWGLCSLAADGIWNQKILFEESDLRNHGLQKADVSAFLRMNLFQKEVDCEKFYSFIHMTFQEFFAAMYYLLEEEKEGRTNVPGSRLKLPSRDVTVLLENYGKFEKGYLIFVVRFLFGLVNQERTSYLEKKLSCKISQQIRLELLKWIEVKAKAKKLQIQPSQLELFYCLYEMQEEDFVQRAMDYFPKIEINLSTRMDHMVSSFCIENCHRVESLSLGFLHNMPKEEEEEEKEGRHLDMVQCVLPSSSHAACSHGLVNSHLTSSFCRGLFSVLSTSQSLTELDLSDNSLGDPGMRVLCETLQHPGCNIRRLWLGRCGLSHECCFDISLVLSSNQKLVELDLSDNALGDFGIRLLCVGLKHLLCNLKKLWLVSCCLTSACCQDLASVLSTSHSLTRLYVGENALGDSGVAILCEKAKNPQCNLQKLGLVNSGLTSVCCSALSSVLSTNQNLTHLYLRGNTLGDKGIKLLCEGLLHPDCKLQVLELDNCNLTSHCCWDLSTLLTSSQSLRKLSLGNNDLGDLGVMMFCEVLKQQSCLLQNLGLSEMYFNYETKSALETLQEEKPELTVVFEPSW
UniProt Q9ULZ3: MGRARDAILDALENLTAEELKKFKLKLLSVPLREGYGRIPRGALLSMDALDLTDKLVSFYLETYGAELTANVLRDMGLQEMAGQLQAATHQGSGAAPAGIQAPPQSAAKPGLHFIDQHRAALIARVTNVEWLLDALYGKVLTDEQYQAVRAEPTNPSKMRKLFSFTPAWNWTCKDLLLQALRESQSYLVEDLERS
UniProt P29466: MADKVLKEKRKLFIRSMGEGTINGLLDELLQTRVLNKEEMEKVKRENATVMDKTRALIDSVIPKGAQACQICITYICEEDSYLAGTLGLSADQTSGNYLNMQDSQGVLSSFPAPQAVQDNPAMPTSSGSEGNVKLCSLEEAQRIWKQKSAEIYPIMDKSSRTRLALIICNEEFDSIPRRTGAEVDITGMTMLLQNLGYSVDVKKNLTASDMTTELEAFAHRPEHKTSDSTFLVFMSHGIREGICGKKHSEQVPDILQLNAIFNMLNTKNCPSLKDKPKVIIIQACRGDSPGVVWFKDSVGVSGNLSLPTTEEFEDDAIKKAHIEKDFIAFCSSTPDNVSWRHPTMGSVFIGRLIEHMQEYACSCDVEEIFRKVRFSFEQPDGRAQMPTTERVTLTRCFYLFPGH

Results are given in words; binding and its absence hold for the method and conditions named. Binding seen in cells or lysates may run through a third protein. Some results given as binding are weak or reduced against the parent protein; the word gives no strength. Tags and fused reporters may be left off the sequences shown.

The target in the assay is T1, ubiquitin specific protease 50 (Flag-USP50) (UniProt Q70EL3).
T1 sequence: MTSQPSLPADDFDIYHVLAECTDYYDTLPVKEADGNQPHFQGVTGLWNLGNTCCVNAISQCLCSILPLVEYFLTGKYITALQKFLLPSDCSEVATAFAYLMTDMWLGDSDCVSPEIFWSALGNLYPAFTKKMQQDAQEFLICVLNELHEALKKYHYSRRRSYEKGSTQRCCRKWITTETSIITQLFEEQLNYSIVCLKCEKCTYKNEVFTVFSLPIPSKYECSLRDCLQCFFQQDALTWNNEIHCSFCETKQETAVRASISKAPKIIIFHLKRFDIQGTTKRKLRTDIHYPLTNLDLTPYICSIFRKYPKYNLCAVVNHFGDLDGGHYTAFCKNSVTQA
The assay is described as follows: co-IP; lysate of U937 cells stably expressing Flag-USP50 (or vector); anti-FLAG antibody overnight at 4°C, agarose 4 h, washed three times; western blotting of the precipitate. On the technique in general: In western blotting, separated proteins are transferred to a membrane and probed.

On to “NLR family pyrin domain containing 3 (NLRP3) (from UniProt Q96P20 1-1036)”, for which the binding result was “binds weakly”.
For “apoptosis-associated speck-like protein containing CARD (ASC) (from UniProt Q9ULZ3 1-195)” the value was “binds”.
Under “procaspase-1 (from UniProt P29466 1-404)” stands “no binding”.
